We go through one substance from PMC10638126.

Results are given in words; binding and its absence hold for the method and conditions named. In cells and extracts the contact can be indirect. A result given as binding can be weak or reduced; the word gives no strength.

The assay concerns the target T1, ABA RESPONSIVE ELEMENT BINDING FACTOR 1 (OsABF1) (rice (Oryza sativa)) (UniProt Q0JHF1).
T1 sequence: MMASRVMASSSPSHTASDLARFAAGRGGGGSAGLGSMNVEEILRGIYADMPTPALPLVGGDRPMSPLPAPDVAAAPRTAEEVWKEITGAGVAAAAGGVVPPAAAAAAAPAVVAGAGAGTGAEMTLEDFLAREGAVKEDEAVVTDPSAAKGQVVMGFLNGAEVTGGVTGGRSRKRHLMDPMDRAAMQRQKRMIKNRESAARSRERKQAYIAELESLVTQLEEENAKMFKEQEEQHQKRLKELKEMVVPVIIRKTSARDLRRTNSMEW
Put plainly: split reporter; BiFC; pSPYNE (R) and pSPYCE (MR) constructs co-transformed into Arabidopsis mesophyll protoplasts, incubated overnight, confocal microscopy.

“Hd3a BINDING REPRESSOR FACTOR 1 (HBF1) (rice (Oryza sativa))”: the binding entry was “binds”.
